Percent effect of library compounds

T. brucei: 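Whole-parasite assay of Trypanosoma brucei over 72 hours; the read-out is not stated. Compounds at 30 µM. The record gives no direction; compounds that gave an IC50 in retests scored well above the rest, so higher reads as stronger inhibition. Values scatter widely below zero; nearly all retest evidence comes from the higher of the two concentrations used. About 64,000 compounds were tested under these conditions; 1.5% (about 940) showed 50% or more at least once.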
Toxoplasma: 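Assay of Toxoplasma gondii numbers, read through their beta-galactosidase reporter with a colour substrate. Compounds at 10 µM. Higher reads as fewer parasites (inferred from which compounds were picked for retests). About 67,000 compounds were tested under these conditions; 0.38% (about 260) showed 50% or more at least once.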

The filed quantity is “Percent Effect” (%). How 0% and 100% were set is not recorded. Most values in the screen are low, and negative values occur. This is an unselected part of the compounds tested. A dash means the value is not listed here; it may have been measured.

structure | T. brucei | Toxoplasma
Cc1ccc(CS(=O)(=O)Cc2nc(N)nc(N(C)C)n2)cc1 | 3.509% | 0.7545%
c1ncn(CC2CCCN(Cc3nc(C4CC4)no3)C2)n1 (centres unmarked) | -1.322% | -
Cc1ccc(N2CCCC(NCc3ccc4c(c3)CCO4)C2)nn1 (centres unmarked) | -21.69% | 12.14%
CC(=O)N1CCCC(c2ccc(Br)cn2)C1 (centres unmarked) | 11.45% | 7.321%
COC(=O)NCC(=O)NC1CC(C)(C)Cc2oc(C)cc21 (centres unmarked) | -70.3% | 0.0778%
Cc1cc(C(=O)NCC(O)c2ccc(Cl)s2)c(C)o1 (centres unmarked) | -55.82% | 21.88%
CCOc1cccc2c1OCC(C(=O)NS(=O)(=O)c1ccc(Br)s1)=C2 | -5.665% | 7.934%
CC(C)n1nc(CN2CCCC2=O)c2c1CN(C(=O)c1ccc[nH]1)C2 | -70.29% | -10.91%
Cc1c(C(=O)N2CCC3(CCCNC3=O)C2)sc2nc[nH]c(=O)c12 (centres unmarked) | -55.63% | 22.54%
Cn1nccc1-c1cccc(CC2CCN(S(C)(=O)=O)C2)n1 (centres unmarked) | -5.429% | 1.295%
CCOCC(O)CN1CCN(C(=O)c2ccnc(N(C)C)c2)CC1 (centres unmarked) | 6.524% | 1.847%
[H][C@@]12CCN(C(=O)NCC)C[C@]1([H])CCN(C1CCCCC1)C(=O)C2 | -9.384% | 18.82%
CC1=Nc2c(c(O)nn2C2CCOCC2)C(c2cccnc2)S1 (centres unmarked) | -58.07% | -
CCOc1cc(F)ccc1NC1CCN(CC(F)(F)F)C1=O (centres unmarked) | -53.36% | 11.47%
Cc1ccc(N2CCc3ncnc(C4CC4)c3CC2)nn1 | -15.77% | 4.654%
Cc1cc(CNC(=O)CCc2c(C)nc3cc(O)nn3c2C)no1 | -1.438% | 21.39%
CCOCCn1c(=O)n(CCC=C(C)C)c2cc(C(=O)O)cnc21 | -15.04% | -5.754%
O=C(c1ccc2c(c1)COC2)N1CCN(CCO)CC1 | - | -26.62%
O=C(O)C(F)(F)F.O=C(O)C(F)(F)F.[H][C@]12CCN(C(=O)c3cccs3)CC[C@]1([H])N(CCN(C)C)CCO2 | -39.87% | 4.415%
CNC(C(=O)OC)c1cc(F)ccc1F.Cl (centres unmarked) | - | 7.784%
Cc1ccc(C(=O)N(C)Cc2cc(C)on2)cn1 | 8.056% | -18.44%
c1ccc2[nH]c(C3CCN(Cc4nnc(C5CC5)o4)CC3)nc2c1 | 10.32% | -16.73%
CCn1c(C)nnc1SCCNc1nc(C)ncc1S(C)(=O)=O | - | -20.11%
COC(=O)c1sc(NCc2ccc(N3CCC(O)CC3)c(F)c2)nc1Cl | -28.11% | -0.1763%
Cn1c(C(=O)NCC2(N)CCCC2)cc2ccccc21 | -9.266% | -8.094%
Cc1cnn(CC(C)NCc2csc(-c3ncccn3)n2)c1 (centres unmarked) | -11.25% | -0.9036%
O=C(O)C(F)(F)F.[H][C@]12CCN(C(=O)c3ccncc3F)[C@@]1([H])CC[C@@H](COC)O2 | -24.63% | 1.435%
O=C1CN(C(=O)c2cc3ccc(Br)cc3[nH]2)CCN1 | -53.33% | 18.3%
O=C1CCNc2cc3c(cc2CN1Cc1ccco1)OCO3 | -23.07% | -23.09%
Cc1cnn(C2CN(Cc3nc(-c4ccsc4)no3)C2)c1 | 11.95% | 1.248%
CC(C)CN1CCCn2nc(CNC(=O)Cc3cccc(O)c3)cc2C1 | -95.57% | 10.03%
O=C(O)C(F)(F)F.O=C(O)C(F)(F)F.O=C(O)C(F)(F)F.[H][C@@]12CN(Cc3ccc(OC)cc3)C[C@]1([H])OCCN2CCN(C)C | 42.34% | -9.824%
CC(=O)c1ccc(N2CCC3(CC2)CC(=O)N(C)C3)nc1 | -52.59% | -7.134%
CC(=O)c1cccc(NC(=O)Cn2cnc(-c3cccs3)cc2=O)c1 | 14.46% | 4.247%
Cc1cnn(CCC(=O)N2CCN(c3ccc(C#N)cn3)CC2)c1 | -3.314% | -21.71%
Cc1noc(C)c1CCC(=O)N1CCCCC1CNS(C)(=O)=O (centres unmarked) | -2.419% | -2.858%
OCc1ccc(Cl)c(NCc2cccnc2)c1 | -32.42% | -0.2514%
O=C(O)C1CCCN(C(=O)CCn2ccc3c(Br)cccc32)C1 (centres unmarked) | -10.7% | -7.004%
COc1ccc(-n2cc(CNC(=O)c3ccc[nH]3)nn2)cc1 | - | -0.7692%
CN(CCO)Cc1nnc(C2CCN(C(=O)c3cc[nH]c3)CC2)n1C | -0.2256% | 7.557%
CC(=O)N1CCCC1c1cccc(Oc2ccccc2F)n1 (centres unmarked) | -11.27% | 3.517%
Cc1cc(CC(C)Nc2nc(C3CCCC3)nc3c2cnn3C)[nH]n1 (centres unmarked) | 4.637% | 0.3291%
O=C(O)C(F)(F)F.O=C(O)C(F)(F)F.[H][C@@]12CCCO[C@]1([H])[C@H](N(C)Cc1cccnc1)CN2C(=O)NC1CC1 | -11.25% | 16.83%
CN(Cc1ccc(F)cc1)[C@@H]1CN(C(=O)c2cccs2)C[C@H]1O | -0.2207% | -5.381%
c1cc(-c2cnc(NC3CC3)nc2[C@H]2CCCO2)ccn1 | - | 2.196%
CN(CCSc1nncn1C(C)(C)C)c1ccccc1 | -74.25% | 33.74%
CC(=O)N1CCC(n2nccc2-c2cnc(N)nc2)CC1 | -9.866% | -9.918%

Some entries from above, unchanged:

Result for O=C1CCNc2cc3c(cc2CN1Cc1ccco1)OCO3 was T. brucei: -23.07%; Toxoplasma: -23.09%.
Result for Cc1ccc(C(=O)N(C)Cc2cc(C)on2)cn1 was T. brucei: 8.056%; Toxoplasma: -18.44%.
Result for Cc1cc(CNC(=O)CCc2c(C)nc3cc(O)nn3c2C)no1 was T. brucei: -1.438%; Toxoplasma: 21.39%.
Result for CC(=O)N1CCC(n2nccc2-c2cnc(N)nc2)CC1 was T. brucei: -9.866%; Toxoplasma: -9.918%.

Measurements from “University of Dundee, Small-Polar-MMV Screening Library” (2021), ChEMBL document CHEMBL3988442.